Test results taken from paper PMC7381030.
Results are given in words; binding and its absence hold for the method and conditions named. In cells and extracts the contact can be indirect. Some entries that bind do so weakly or less than the wild type. Where a sequence is shown, tags or fusion partners need not be part of it. Each block holds one binder with its values, some of them ahead of it.

How the values were obtained:
[1] = molecular target: T1, ZNF598-TEV-3xFLAG (human) (UniProt Q86UK7); assay: co-IP; anti-FLAG M2 IP of ZNF598-3xFLAG from pooled sucrose gradient fractions (ribosome-free fractions 1-4 and heavy polysome fractions 7-10) of transfected WT or ∆EDF1 cells (with or without 1.8 μM emetine); 1xRNC with 0.05% digitonin; eluted with FLAG peptide; western blot
T1 sequence: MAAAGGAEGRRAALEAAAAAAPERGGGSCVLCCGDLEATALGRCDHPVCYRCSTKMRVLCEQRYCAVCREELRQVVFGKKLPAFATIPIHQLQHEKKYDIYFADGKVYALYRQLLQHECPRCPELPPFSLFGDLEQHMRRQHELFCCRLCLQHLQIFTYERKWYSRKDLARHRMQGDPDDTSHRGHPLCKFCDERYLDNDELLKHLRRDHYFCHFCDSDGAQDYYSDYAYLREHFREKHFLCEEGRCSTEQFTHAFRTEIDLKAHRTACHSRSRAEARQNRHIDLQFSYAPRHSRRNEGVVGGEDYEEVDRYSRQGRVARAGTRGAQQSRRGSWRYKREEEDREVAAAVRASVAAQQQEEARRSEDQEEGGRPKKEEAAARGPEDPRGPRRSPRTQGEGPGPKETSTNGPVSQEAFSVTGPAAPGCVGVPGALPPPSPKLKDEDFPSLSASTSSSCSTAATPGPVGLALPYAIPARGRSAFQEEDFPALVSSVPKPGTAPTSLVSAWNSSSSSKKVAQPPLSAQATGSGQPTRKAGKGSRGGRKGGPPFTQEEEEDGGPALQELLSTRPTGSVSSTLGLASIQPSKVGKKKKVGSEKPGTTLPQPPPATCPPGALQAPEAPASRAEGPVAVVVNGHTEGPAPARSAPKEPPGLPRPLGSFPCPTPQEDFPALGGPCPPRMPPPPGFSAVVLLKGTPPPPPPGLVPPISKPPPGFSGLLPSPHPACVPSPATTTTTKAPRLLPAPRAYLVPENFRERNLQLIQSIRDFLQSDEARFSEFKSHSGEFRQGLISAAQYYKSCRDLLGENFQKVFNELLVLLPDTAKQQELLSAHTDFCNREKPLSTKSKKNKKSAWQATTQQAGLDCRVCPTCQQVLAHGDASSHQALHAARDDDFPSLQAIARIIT

[2] = molecular target: T1, ZNF598-TEV-3xFLAG (human); assay: co-IP; FLAG-M2 resin IP of the 3xFLAG-tagged bait from ribosome-free cytosolic extracts (100,000 rpm supernatant) of transfected HEK293 cells (WT, ∆EDF1 or ∆GIGYF2; with or without 1.8 μM emetine for 30 min); 1xRNC buffer with 0.5% Triton X-100 and 1 mM DTT, 1 hr at 4°C; eluted with FLAG peptide; western blot
EDF1-GFP (human), O60869 = molecular target: T2, EDF1-GFP (human), O60869; assay: co-IP; GFP-trap agarose IP of EDF1-GFP from ribosome-free cytosolic extracts of transfected WT HEK293 cells (with or without 1.8 μM emetine for 30 min); 1xRNC buffer with 0.5% Triton X-100 and 1 mM DTT, 1 hr at 4°C; eluted in SDS sample buffer; western blot; details: remark: other sources report otherwise
T2 chain: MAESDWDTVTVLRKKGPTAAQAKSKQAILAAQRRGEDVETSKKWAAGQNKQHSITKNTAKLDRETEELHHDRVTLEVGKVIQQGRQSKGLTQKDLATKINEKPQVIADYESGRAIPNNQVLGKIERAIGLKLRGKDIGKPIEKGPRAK

[3] = molecular target: T3, EDF1-TEV-3xFLAG (human), O60869; assay: co-IP; FLAG-M2 resin IP of the 3xFLAG-tagged bait from ribosome-free cytosolic extracts (100,000 rpm supernatant) of transfected HEK293 cells (WT, ∆EDF1 or ∆GIGYF2; with or without 1.8 μM emetine for 30 min); 1xRNC buffer with 0.5% Triton X-100 and 1 mM DTT, 1 hr at 4°C; eluted with FLAG peptide; western blot; details: remark: other sources report otherwise
T3 chain: T2 chain

[4] = molecular target: T4, ZNF598-TEV-3xFLAG (human), Q86UK7; assay: as above; details: remark: other sources report otherwise
T4 chain: T1 sequence

binding [1]: binds
binding [2]: binds
B1: Twin-Strep-GIGYF2 (protein, UniProt Q6Y7W6 1-1299)
chain: MAAETQTLNFGPEWLRALSSGGSITSPPLSPALPKYKLADYRYGREEMLALFLKDNKIPSDLLDKEFLPILQEEPLPPLALVPFTEEEQRNFSMSVNSAAVLRLTGRGGGGTVVGAPRGRSSSRGRGRGRGECGFYQRSFDEVEGVFGRGGGREMHRSQSWEERGDRRFEKPGRKDVGRPNFEEGGPTSVGRKHEFIRSESENWRIFREEQNGEDEDGGWRLAGSRRDGERWRPHSPDGPRSAGWREHMERRRRFEFDFRDRDDERGYRRVRSGSGSIDDDRDSLPEWCLEDAEEEMGTFDSSGAFLSLKKVQKEPIPEEQEMDFRPVDEGEECSDSEGSHNEEAKEPDKTNKKEGEKTDRVGVEASEETPQTSSSSARPGTPSDHQSQEASQFERKDEPKTEQTEKAEEETRMENSLPAKVPSRGDEMVADVQQPLSQIPSDTASPLLILPPPVPNPSPTLRPVETPVVGAPGMGSVSTEPDDEEGLKHLEQQAEKMVAYLQDSALDDERLASKLQEHRAKGVSIPLMHEAMQKWYYKDPQGEIQGPFNNQEMAEWFQAGYFTMSLLVKRACDESFQPLGDIMKMWGRVPFSPGPAPPPHMGELDQERLTRQQELTALYQMQHLQYQQFLIQQQYAQVLAQQQKAALSSQQQQQLALLLQQFQTLKMRISDQNIIPSVTRSVSVPDTGSIWELQPTASQPTVWEGGSVWDLPLDTTTPGPALEQLQQLEKAKAAKLEQERREAEMRAKREEEERKRQEELRRQQEEILRRQQEEERKRREEEELARRKQEEALRRQREQEIALRRQREEEERQQQEEALRRLEERRREEEERRKQEELLRKQEEEAAKWAREEEEAQRRLEENRLRMEEEAARLRHEEEERKRKELEVQRQKELMRQRQQQQEALRRLQQQQQQQQLAQMKLPSSSTWGQQSNTTACQSQATLSLAEIQKLEEERERQLREEQRRQQRELMKALQQQQQQQQQKLSGWGNVSKPSGTTKSLLEIQQEEARQMQKQQQQQQQHQQPNRARNNTHSNLHTSIGNSVWGSINTGPPNQWASDLVSSIWSNADTKNSNMGFWDDAVKEVGPRNSTNKNKNNASLSKSVGVSNRQNKKVEEEEKLLKLFQGVNKAQDGFTQWCEQMLHALNTANNLDVPTFVSFLKEVESPYEVHDYIRAYLGDTSEAKEFAKQFLERRAKQKANQQRQQQQLPQQQQQQPPQQPPQQPQQQDSVWGMNHSTLHSVFQTNQSNNQQSNFEAVQSGKKKKKQKMVRADPSLLGFSVNASSERLNMGEIETLDDY

binding (EDF1-GFP (human), O60869): no binding
binding [3]: no binding
B2: Twin-Strep-GIGYF2, Q6Y7W6 1-1299 (protein)
chain: B1 chain

binding [4]: no binding
B3: EDF1-GFP, O60869 1-148 (protein)
chain: T2 chain

binding (EDF1-GFP (human), O60869): no binding
B4: ZNF598-TEV-3xFLAG, Q86UK7 1-904 (enzyme)
chain: T1 sequence
